Test results from paper doi:10.1101/181180.
No constants are given. Whether binding was seen depends on the method and setting. For some assays here: Binding seen in cells or lysates may run through a third protein. Some entries that bind do so weakly or less than the wild type. Where a sequence is shown, tags or fusion partners need not be part of it. One block for each binder: values may come before it.

Experiments:
[1] = biological target: T1, Set1 (two-hybrid fusion) (S. cerevisiae (SK1)) (UniProt P38827); assay: two-hybrid
T1 sequence: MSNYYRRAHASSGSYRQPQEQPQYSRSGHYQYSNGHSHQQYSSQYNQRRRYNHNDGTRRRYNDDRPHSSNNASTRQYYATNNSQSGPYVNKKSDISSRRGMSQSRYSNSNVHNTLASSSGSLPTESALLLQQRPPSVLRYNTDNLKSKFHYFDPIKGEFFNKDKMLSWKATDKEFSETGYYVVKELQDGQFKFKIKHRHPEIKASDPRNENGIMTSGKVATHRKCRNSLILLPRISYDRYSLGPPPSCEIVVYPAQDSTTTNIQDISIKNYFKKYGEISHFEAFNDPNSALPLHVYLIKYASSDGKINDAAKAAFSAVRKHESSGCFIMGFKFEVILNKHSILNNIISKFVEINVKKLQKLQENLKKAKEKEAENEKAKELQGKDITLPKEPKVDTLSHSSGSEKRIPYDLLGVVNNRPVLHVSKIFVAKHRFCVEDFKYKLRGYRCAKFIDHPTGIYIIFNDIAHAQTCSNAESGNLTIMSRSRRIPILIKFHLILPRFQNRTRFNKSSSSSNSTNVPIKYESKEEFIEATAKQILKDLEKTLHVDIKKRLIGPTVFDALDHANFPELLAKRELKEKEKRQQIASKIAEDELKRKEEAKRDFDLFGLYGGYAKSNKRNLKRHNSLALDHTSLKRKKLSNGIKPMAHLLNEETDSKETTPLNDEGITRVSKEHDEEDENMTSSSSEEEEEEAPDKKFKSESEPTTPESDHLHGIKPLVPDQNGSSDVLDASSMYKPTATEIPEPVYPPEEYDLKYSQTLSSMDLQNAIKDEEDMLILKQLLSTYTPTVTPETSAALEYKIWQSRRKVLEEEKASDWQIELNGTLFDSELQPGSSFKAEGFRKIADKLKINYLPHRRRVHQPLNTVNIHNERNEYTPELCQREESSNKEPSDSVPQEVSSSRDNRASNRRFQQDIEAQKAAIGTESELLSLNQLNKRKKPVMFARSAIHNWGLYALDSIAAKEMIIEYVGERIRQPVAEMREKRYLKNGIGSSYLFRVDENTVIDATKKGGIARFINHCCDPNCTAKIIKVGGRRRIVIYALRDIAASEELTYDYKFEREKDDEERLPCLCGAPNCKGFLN

[2] = biological target: T2, Spp1-TAP (S. cerevisiae (SK1)) (UniProt Q03012); assay: co-IP
T2 sequence: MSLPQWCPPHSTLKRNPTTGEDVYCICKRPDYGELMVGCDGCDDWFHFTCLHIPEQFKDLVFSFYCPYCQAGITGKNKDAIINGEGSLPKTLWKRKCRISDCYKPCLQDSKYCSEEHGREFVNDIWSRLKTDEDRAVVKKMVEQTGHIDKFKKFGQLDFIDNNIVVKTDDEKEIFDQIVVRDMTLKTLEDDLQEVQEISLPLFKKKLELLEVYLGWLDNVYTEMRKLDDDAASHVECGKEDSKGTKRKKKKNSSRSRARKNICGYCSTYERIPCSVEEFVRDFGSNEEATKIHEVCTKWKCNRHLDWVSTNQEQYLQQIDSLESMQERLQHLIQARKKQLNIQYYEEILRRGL

[3] = biological target: T3, Swd1-HA (S. cerevisiae (SK1)) (UniProt P39706); assay: co-IP
T3 sequence: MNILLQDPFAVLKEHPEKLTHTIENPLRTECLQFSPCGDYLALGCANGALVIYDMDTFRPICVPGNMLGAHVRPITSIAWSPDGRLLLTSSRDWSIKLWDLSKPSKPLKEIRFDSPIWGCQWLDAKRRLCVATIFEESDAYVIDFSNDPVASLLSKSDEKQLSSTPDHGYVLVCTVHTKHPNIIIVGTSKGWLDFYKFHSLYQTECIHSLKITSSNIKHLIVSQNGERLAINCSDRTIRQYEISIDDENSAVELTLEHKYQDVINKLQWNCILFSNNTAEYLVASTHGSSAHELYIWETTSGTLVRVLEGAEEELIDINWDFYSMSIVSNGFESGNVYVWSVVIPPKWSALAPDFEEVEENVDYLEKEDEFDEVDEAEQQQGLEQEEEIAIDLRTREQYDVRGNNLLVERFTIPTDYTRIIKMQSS

[4] = biological target: T4, Mer2 (two-hybrid fusion) (S. cerevisiae) (UniProt P21651); assay: two-hybrid
T4 sequence: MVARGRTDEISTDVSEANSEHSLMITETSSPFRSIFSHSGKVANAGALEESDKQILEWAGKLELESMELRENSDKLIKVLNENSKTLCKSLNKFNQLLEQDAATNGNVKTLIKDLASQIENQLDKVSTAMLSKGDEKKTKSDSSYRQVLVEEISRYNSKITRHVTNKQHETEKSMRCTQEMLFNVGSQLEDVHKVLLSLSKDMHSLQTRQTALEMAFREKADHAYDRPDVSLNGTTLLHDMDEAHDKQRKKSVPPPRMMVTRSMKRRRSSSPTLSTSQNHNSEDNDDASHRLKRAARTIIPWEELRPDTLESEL

[5] = biological target: T5, Mer2 V195D (two-hybrid fusion) (S. cerevisiae) (UniProt P21651); assay: two-hybrid
T5 sequence: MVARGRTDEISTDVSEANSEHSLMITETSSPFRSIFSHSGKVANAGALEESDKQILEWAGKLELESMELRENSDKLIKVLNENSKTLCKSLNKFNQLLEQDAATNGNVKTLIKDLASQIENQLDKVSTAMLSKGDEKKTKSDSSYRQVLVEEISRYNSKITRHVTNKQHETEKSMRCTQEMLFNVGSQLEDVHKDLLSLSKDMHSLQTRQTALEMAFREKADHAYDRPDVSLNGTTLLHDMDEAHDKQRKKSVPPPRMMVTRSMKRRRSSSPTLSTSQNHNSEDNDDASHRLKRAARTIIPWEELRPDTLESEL

[6] = biological target: T6, Mer2-Flag (S. cerevisiae (SK1)) (UniProt P21651); assay: co-IP
T6 sequence: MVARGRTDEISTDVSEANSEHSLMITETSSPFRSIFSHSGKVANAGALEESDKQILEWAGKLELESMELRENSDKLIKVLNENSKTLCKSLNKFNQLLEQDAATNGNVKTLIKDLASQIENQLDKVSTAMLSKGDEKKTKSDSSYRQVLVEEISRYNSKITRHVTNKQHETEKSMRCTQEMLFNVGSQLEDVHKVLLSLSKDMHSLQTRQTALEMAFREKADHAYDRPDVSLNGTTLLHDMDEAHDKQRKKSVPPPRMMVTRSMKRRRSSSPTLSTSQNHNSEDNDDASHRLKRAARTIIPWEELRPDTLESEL

- binding [1]: binds
B1: Swd2 (two-hybrid fusion) (protein, UniProt P36104 1-329)
chain: MTTVSINKPNLLKFKHVKSFQPQEKDCGPVTSLNFDDNGQFLLTSSSNDTMQLYSATNCKFLDTIASKKYGCHSAIFTHAQNECIYSSTMKNFDIKYLNLETNQYLRYFSGHGALVNDLKMNPVNDTFLSSSYDESVRLWDLKISKPQVIIPSLVPNCIAYDPSGLVFALGNPENFEIGLYNLKKIQEGPFLIIKINDATFSQWNKLEFSNNGKYLLVGSSIGKHLIFDAFTGQQLFELIGTRAFPMREFLDSGSACFTPDGEFVLGTDYDGRIAIWNHSDSISNKVLRPQGFIPCVSHETCPRSIAFNPKYSMFVTADETVDFYVYDE

- binding [6]: binds
B5: Spp1-Myc (protein, UniProt Q03012 1-353)
chain: MSLPQWCPPHSTLKRNPTTGEDVYCICKRPDYGELMVGCDGCDDWFHFTCLHIPEQFKDLVFSFYCPYCQAGITGKNKDAIINGEGSLPKTLWKRKCRISDCYKPCLQDSKYCSEEHGREFVNDIWSRLKTDEDRAVVKKMVEQTGHIDKFKKFGQLDFIDNNIVVKTDDEKEIFDQIVVRDMTLKTLEDDLQEVQEISLPLFKKKLELLEVYLGWLDNVYTEMRKLDDDAASHVECGKEDSKGTKRKKKKNSSRSRARKNICGYCSTYERIPCSVEEFVRDFGSNEEATKIHEVCTKWKCNRHLDWVSTNQEQYLQQIDSLESMQERLQHLIQARKKQLNIQYYEEILRRGL

- binding [6]: no binding
B6: Swd1-HA (protein, UniProt P39706 1-426)
chain: MNILLQDPFAVLKEHPEKLTHTIENPLRTECLQFSPCGDYLALGCANGALVIYDMDTFRPICVPGNMLGAHVRPITSIAWSPDGRLLLTSSRDWSIKLWDLSKPSKPLKEIRFDSPIWGCQWLDAKRRLCVATIFEESDAYVIDFSNDPVASLLSKSDEKQLSSTPDHGYVLVCTVHTKHPNIIIVGTSKGWLDFYKFHSLYQTECIHSLKITSSNIKHLIVSQNGERLAINCSDRTIRQYEISIDDENSAVELTLEHKYQDVINKLQWNCILFSNNTAEYLVASTHGSSAHELYIWETTSGTLVRVLEGAEEELIDINWDFYSMSIVSNGFESGNVYVWSVVIPPKWSALAPDFEEVEENVDYLEKEDEFDEVDEAEQQQGLEQEEEIAIDLRTREQYDVRGNNLLVERFTIPTDYTRIIKMQSS

- binding [4]: binds
B7: Spp1 Δ263-266 (two-hybrid fusion) (protein, UniProt Q03012)
chain: MSLPQWCPPHSTLKRNPTTGEDVYCICKRPDYGELMVGCDGCDDWFHFTCLHIPEQFKDLVFSFYCPYCQAGITGKNKDAIINGEGSLPKTLWKRKCRISDCYKPCLQDSKYCSEEHGREFVNDIWSRLKTDEDRAVVKKMVEQTGHIDKFKKFGQLDFIDNNIVVKTDDEKEIFDQIVVRDMTLKTLEDDLQEVQEISLPLFKKKLELLEVYLGWLDNVYTEMRKLDDDAASHVECGKEDSKGTKRKKKKNSSRSRARKNISTYERIPCSVEEFVRDFGSNEEATKIHEVCTKWKCNRHLDWVSTNQEQYLQQIDSLESMQERLQHLIQARKKQLNIQYYEEILRRGL

The next lines start with the binder.

B2: Mer2-Flag (protein, UniProt P21651 1-314)
chain: MVARGRTDEISTDVSEANSEHSLMITETSSPFRSIFSHSGKVANAGALEESDKQILEWAGKLELESMELRENSDKLIKVLNENSKTLCKSLNKFNQLLEQDAATNGNVKTLIKDLASQIENQLDKVSTAMLSKGDEKKTKSDSSYRQVLVEEISRYNSKITRHVTNKQHETEKSMRCTQEMLFNVGSQLEDVHKVLLSLSKDMHSLQTRQTALEMAFREKADHAYDRPDVSLNGTTLLHDMDEAHDKQRKKSVPPPRMMVTRSMKRRRSSSPTLSTSQNHNSEDNDDASHRLKRAARTIIPWEELRPDTLESEL
- binding [2]: binds
- binding [3]: no binding

B3: Mer2_sid-Flag (protein, UniProt P21651 1-314)
chain: MVARGRTDEISTDVSEANSEHSLMITETSSPFRSIFSHSGKVANAGALEESDKQILEWAGKLELESMELRENSDKLIKVLNENSKTLCKSLNKFNQLLEQDAATNGNVKTLIKDLASQIENQLDKVSTAMLSKGDEKKTKSDSSYRQVLVEEISRYNSKITRHVTNKQHETEKSMRCTQEMLFNVGSQLEDVHKDLLSLSKDMHSLQTRQTALEMAFREKADHAYDRPDVSLNGTTLLHDMDEAHDKQRKKSVPPPRMMVTRSMKRRRSSSPTLSTSQNHNSEDNDDASHRLKRAARTIIPWEELRPDTLESEL
- binding [2]: no binding

B4: Spp1 (two-hybrid fusion) (protein, UniProt Q03012 1-353)
chain: MSLPQWCPPHSTLKRNPTTGEDVYCICKRPDYGELMVGCDGCDDWFHFTCLHIPEQFKDLVFSFYCPYCQAGITGKNKDAIINGEGSLPKTLWKRKCRISDCYKPCLQDSKYCSEEHGREFVNDIWSRLKTDEDRAVVKKMVEQTGHIDKFKKFGQLDFIDNNIVVKTDDEKEIFDQIVVRDMTLKTLEDDLQEVQEISLPLFKKKLELLEVYLGWLDNVYTEMRKLDDDAASHVECGKEDSKGTKRKKKKNSSRSRARKNICGYCSTYERIPCSVEEFVRDFGSNEEATKIHEVCTKWKCNRHLDWVSTNQEQYLQQIDSLESMQERLQHLIQARKKQLNIQYYEEILRRGL
- binding [4]: binds
- binding [5]: no binding
- binding [1]: binds

B8: Shg1 (two-hybrid fusion) (protein, UniProt P38337 1-142)
chain: MAYNQEDSKRLSDKYKKEGHFDKLKREILSNPWNNTEENSESFEQALRKRVASTVKEMVNEDEELIFKNRGLTSALIESQLVKDNYLKLGSKMEGDNGDGEKKFDLDVYVRSKLQDPKLLEMIKGQLQETLNSYEEEANGST
- binding [1]: binds
